Source: publication PMC2785806
Results are given in words; binding and its absence hold for the method and conditions named. In cells and extracts the contact can be indirect. Some binding calls cover weakened binding; strength is not graded here.

Amino acid sequences for entries named in this document (tags omitted).
UniProt P04052: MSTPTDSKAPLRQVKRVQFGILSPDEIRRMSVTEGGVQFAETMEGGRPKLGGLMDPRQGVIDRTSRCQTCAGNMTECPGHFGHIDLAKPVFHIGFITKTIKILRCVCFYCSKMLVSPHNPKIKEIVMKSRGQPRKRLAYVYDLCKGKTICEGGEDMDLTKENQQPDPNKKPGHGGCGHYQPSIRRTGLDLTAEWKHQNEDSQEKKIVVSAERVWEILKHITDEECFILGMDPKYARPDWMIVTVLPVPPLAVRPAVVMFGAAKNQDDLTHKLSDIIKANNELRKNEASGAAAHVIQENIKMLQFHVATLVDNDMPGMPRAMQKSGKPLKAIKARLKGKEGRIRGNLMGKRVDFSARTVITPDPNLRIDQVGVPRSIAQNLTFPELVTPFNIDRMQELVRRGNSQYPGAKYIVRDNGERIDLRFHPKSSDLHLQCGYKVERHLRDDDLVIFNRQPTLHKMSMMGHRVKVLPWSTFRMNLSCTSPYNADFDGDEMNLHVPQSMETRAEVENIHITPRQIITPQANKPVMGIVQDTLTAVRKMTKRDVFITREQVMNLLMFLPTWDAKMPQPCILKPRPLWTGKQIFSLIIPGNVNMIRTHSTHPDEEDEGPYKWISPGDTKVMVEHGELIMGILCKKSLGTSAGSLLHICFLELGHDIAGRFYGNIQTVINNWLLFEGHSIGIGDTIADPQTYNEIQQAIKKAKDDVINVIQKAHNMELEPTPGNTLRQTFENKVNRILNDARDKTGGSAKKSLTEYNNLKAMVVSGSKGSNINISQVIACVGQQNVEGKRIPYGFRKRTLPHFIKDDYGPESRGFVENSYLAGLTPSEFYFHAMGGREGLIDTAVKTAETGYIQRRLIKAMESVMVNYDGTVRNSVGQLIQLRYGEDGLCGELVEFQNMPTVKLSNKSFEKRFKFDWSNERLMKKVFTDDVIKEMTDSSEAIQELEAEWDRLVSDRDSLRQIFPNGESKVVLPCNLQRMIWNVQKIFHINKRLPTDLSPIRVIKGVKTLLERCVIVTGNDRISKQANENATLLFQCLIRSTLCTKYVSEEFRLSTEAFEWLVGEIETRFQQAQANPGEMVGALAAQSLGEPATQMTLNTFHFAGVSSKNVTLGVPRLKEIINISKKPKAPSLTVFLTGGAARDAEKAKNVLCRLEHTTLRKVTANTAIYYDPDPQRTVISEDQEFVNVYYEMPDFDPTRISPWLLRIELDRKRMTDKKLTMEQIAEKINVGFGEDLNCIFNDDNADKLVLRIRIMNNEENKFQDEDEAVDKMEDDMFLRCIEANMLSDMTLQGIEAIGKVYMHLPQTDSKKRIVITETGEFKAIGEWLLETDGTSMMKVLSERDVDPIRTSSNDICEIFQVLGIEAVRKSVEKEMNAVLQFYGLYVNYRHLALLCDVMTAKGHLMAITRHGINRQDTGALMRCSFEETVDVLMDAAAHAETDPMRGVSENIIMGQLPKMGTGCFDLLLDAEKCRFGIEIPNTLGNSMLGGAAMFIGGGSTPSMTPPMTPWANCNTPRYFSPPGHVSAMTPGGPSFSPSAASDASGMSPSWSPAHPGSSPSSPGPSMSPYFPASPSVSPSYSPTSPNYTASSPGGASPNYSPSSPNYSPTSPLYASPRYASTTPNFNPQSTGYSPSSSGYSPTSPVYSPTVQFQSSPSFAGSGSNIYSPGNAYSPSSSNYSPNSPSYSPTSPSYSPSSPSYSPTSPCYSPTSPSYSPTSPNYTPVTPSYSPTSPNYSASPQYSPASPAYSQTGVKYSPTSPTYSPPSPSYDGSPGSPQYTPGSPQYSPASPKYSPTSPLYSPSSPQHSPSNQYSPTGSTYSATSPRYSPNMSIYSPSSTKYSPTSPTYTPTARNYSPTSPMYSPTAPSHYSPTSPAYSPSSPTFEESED
UniProt A1ZAW0: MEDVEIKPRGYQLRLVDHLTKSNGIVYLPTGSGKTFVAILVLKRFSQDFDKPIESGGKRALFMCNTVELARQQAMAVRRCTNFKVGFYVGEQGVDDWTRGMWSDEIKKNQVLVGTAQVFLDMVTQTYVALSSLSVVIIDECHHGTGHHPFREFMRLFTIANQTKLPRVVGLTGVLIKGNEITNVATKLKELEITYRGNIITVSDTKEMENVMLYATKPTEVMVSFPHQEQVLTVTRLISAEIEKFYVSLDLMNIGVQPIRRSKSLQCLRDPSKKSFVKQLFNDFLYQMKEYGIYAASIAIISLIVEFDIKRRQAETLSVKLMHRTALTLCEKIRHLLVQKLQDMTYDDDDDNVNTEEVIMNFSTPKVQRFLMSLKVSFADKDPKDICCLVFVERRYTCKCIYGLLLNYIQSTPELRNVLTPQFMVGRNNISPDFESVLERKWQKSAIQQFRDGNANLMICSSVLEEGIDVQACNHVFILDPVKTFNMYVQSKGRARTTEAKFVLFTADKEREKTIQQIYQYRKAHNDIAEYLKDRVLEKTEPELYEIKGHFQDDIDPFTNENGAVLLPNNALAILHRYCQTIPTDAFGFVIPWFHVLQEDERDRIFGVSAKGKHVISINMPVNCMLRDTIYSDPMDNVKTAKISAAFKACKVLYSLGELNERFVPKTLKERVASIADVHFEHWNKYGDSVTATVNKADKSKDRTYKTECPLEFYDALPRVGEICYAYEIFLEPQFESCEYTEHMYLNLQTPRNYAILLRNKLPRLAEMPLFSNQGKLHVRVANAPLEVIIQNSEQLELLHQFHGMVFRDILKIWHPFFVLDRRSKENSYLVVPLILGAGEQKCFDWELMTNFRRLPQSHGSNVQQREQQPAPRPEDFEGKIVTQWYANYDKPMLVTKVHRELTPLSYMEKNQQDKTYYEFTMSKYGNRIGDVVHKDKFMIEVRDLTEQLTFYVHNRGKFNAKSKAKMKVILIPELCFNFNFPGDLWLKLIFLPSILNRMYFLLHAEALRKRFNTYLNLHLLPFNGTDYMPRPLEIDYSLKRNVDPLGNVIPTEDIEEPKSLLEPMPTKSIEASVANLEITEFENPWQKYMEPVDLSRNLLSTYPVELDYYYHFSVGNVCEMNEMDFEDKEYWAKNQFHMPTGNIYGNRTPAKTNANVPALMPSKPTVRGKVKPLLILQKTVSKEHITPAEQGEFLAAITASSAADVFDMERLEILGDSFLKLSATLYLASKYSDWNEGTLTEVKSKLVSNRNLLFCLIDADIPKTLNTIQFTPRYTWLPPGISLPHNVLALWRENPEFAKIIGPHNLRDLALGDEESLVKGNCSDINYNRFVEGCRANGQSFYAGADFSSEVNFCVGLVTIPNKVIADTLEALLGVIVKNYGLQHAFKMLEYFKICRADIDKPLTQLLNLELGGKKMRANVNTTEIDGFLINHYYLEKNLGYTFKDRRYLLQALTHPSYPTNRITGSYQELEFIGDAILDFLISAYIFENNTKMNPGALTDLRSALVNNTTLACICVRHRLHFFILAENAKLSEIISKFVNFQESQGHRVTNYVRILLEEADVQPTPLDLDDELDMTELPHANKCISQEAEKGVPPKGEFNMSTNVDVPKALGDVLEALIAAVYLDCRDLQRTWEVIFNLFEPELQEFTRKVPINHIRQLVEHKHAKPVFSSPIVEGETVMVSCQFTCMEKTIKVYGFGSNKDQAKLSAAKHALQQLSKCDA

Target: RNA Pol II ser-2 phos CTD (largest subunit with the CTD phosphorylated on ser-2, the transcriptionally competent form), as precipitated with the H5 antibody (Drosophila (endogenous in wild type embryos)) (UniProt P04052)
Assay: co-IP; whole cell extract of 6-18 h wild type Drosophila embryos; performed as with 8WG16 but with H5 antibodies specific for RNA Pol II ser-2 phos; western blot

binding: binds
Substance: Dicer-2 (from UniProt A1ZAW0 1-1722) (enzyme)
